Some of these results come from one statement about several compounds together.
What was measured:
[1] = molecular target: K-RasG12V (Homo sapiens, UniProt P01116+P62937, G12V); experiment: Disruption of BRAF RBD interaction with K-Ras (TR-FRET / MOA assay), K-RasG12V; assay type: biochemical; details: TR-FRET with cyclophilin A and GST-BRAF RBD, read-out: IC50 with respect to K-RasG12V (disruption of BRAF RBD interaction)
[2] = tested on: Capan-1 (K-Ras G12V); experiment: CellTiter-Glo cell viability assay, Capan-1; assay type: cell-based, human; details: 5-day treatment, Capan-1 versus A375

Protein sequences, listed by entry. Tags and fused reporters are not part of them. Lines headed by an entry give the natural chain unless they say otherwise; changes in a name come on top. Residues count along the entry.
UniProt P01116, 1-188 isoform P01116-2 G12V: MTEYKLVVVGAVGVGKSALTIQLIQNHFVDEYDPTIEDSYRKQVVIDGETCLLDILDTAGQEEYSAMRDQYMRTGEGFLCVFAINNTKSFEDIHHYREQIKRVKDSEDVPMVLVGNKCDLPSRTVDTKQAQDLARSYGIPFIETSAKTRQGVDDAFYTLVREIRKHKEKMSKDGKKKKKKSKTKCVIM
UniProt P62937, whole entry: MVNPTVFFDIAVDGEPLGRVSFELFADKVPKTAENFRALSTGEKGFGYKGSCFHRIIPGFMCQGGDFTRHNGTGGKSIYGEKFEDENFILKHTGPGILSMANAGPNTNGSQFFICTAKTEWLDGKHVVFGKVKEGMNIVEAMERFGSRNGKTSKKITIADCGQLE

CO[C@@H](C)c1ncccc1-c1c2c3cc(ccc3n1CCOC1CCOCC1)-c1coc(n1)[C@@H](N1CC3(COC3)C1)[C@H](NC(=O)[C@H]1[C@@H]3COC[C@@H]31)C(=O)N1CCCC(N1)C(=O)OCC(C)(C)C2 (mixture of isomers) [Example A160]
IC50 [1]: < 1000 nM
decrease in cell viability with respect to KRAS G12V (Capan-1) versus wild-type KRAS (A375) [2]: greater decrease in cell viability

CO[C@@H](C)c1ncccc1-c1c2c3cc(ccc3n1CCOC1CCOCC1)-c1coc(n1)[C@@H](N1CC3(COC3)C1)[C@H](NC(=O)[C@@H]1[C@H](C)[C@@H]1C)C(=O)N1CCC[C@H](N1)C(=O)OCC(C)(C)C2 (racemic) [Example A161]
IC50 [1]: < 1000 nM
decrease in cell viability with respect to KRAS G12V (Capan-1) versus wild-type KRAS (A375) [2]: greater decrease in cell viability

CO[C@@H](C)c1ncccc1-c1c2c3cc(ccc3n1C1COC1)-c1csc(n1)[C@@H](N1CC3(COC3)C1)[C@H](NC(=O)C13CC(C1)C(C)(C)O3)C(=O)N1N[C@H](C(=O)OCC(C)(C)C2)C2CC1C2 (racemic) [Example A162]
IC50 [1]: < 1000 nM
decrease in cell viability with respect to KRAS G12V (Capan-1) versus wild-type KRAS (A375) [2]: greater decrease in cell viability

CO[C@@H](C)c1ncc(N2CCN(C3CC3)CC2)cc1-c1c2c3cc(ccc3n1CCOC1CCOCC1)-c1csc(n1)[C@@H](N1CCCC1)[C@H](NC(=O)C13CC(C1)C(C)(C)O3)C(=O)N1CCC[C@H](N1)C(=O)OCC(C)(C)C2 (racemic) [Example A163]
IC50 [1]: < 1000 nM
decrease in cell viability with respect to KRAS G12V (Capan-1) versus wild-type KRAS (A375) [2]: greater decrease in cell viability

CO[C@@H](C)c1ncc(C2CCN(C3CC3)CC2)cc1-c1c2c3cc(ccc3n1CCOC1CCOCC1)-c1csc(n1)[C@@H](N1CCCC1)[C@H](NC(=O)[C@@H]1C[C@@H](C)O1)C(=O)N1CCC[C@H](N1)C(=O)OCC(C)(C)C2 (racemic) [Example A164]
IC50 [1]: < 1000 nM
decrease in cell viability with respect to KRAS G12V (Capan-1) versus wild-type KRAS (A375) [2]: greater decrease in cell viability

CO[C@@H](C)c1ncc(C2CCN(C3CC3)CC2)cc1-c1c2c3cc(ccc3n1CCOC1CCOCC1)-c1csc(n1)[C@@H](N1CCCC1)[C@H](NC(=O)C1C[C@@H](C)O1)C(=O)N1CCC[C@H](N1)C(=O)OCC(C)(C)C2 (mixture of isomers) [Example A165]
IC50 [1]: < 1000 nM
decrease in cell viability with respect to KRAS G12V (Capan-1) versus wild-type KRAS (A375) [2]: greater decrease in cell viability

CO[C@@H](C)c1ncc(N2CCN(C3CC3)CC2)cc1-c1c2c3cc(ccc3n1CCOC1CCOCC1)-c1csc(n1)[C@@H](N1CC3(CCC3)C1)[C@H](NC(=O)[C@@H]1C[C@@H](C)O1)C(=O)N1CCC[C@H](N1)C(=O)OCC(C)(C)C2 (racemic) [Example A166]
IC50 [1]: < 1000 nM
decrease in cell viability with respect to KRAS G12V (Capan-1) versus wild-type KRAS (A375) [2]: greater decrease in cell viability

CO[C@@H](C)c1ncc(N2CCN(C3CC3)CC2)cc1-c1c2c3cc(ccc3n1CCOC1CCOCC1)-c1csc(n1)[C@@H](N1CC3(CCC3)C1)[C@H](NC(=O)[C@H]1C[C@@H](C)O1)C(=O)N1CCC[C@H](N1)C(=O)OCC(C)(C)C2 (racemic) [Example A167]
IC50 [1]: < 1000 nM
decrease in cell viability with respect to KRAS G12V (Capan-1) versus wild-type KRAS (A375) [2]: greater decrease in cell viability

CO[C@@H](C)c1ncccc1-c1c2c3cc(ccc3n1CCOC1CCOCC1)-c1csc(n1)[C@@H](N1CC3(CCOC3)C1)[C@H](NC(=O)C13CC(C)(C1)[C@H](C)O3)C(=O)N1CCC[C@H](N1)C(=O)OCC(C)(C)C2 (racemic) [Example A168]
IC50 [1]: < 1000 nM
decrease in cell viability with respect to KRAS G12V (Capan-1) versus wild-type KRAS (A375) [2]: greater decrease in cell viability

CO[C@@H](C)c1ncc(N2CCN(C)CC2)cc1-c1c2c3cc(ccc3n1CCOC1CCOCC1)-c1csc(n1)[C@@H](N1CC(C)(OC)C1)[C@H](NC(=O)[C@@H]1OC[C@@H]1C)C(=O)N1CCC[C@H](N1)C(=O)OCC(C)(C)C2 (racemic) [Example A170]
IC50 [1]: < 1000 nM
decrease in cell viability with respect to KRAS G12V (Capan-1) versus wild-type KRAS (A375) [2]: greater decrease in cell viability

CO[C@@H](C)c1ncc(N2CCN(C)CC2)cc1-c1c2c3cc(ccc3n1CCOC1CCOCC1)-c1csc(n1)[C@@H](N1CC(C)(OC)C1)[C@H](NC(=O)[C@H]1OC[C@@H]1C)C(=O)N1CCC[C@H](N1)C(=O)OCC(C)(C)C2 (racemic) [Example A171]
IC50 [1]: < 1000 nM
decrease in cell viability with respect to KRAS G12V (Capan-1) versus wild-type KRAS (A375) [2]: greater decrease in cell viability

CO[C@@H](C)c1ncc(C2CCN(C3COC3)CC2)cc1-c1c2c3cc(ccc3n1CCOC1CCOCC1)-c1csc(n1)[C@@H](N1CC(C)(OC)C1)[C@H](NC(=O)[C@@H]1OC[C@@H]1C)C(=O)N1CCC[C@H](N1)C(=O)OCC(C)(C)C2 (racemic) [Example A172]
IC50 [1]: < 1000 nM
decrease in cell viability with respect to KRAS G12V (Capan-1) versus wild-type KRAS (A375) [2]: greater decrease in cell viability

CO[C@@H](C)c1ncc(N2CCN(C)CC2)cc1-c1c2c3cc(ccc3n1CCOC1CCOCC1)-c1csc(n1)[C@@H](N1CC3(COC3)C1)[C@H](NC(=O)[C@@H]1OC[C@@H]1C)C(=O)N1CCC[C@H](N1)C(=O)OCC(C)(C)C2 (racemic) [Example A173]
IC50 [1]: < 1000 nM
decrease in cell viability with respect to KRAS G12V (Capan-1) versus wild-type KRAS (A375) [2]: greater decrease in cell viability

CO[C@@H](C)c1ncc(N2CCN(C)CC2)cc1-c1c2c3cc(ccc3n1CCOC1CCOCC1)-c1csc(n1)[C@@H](N1CC3(COC3)C1)[C@H](NC(=O)[C@H]1OC[C@@H]1C)C(=O)N1CCC[C@H](N1)C(=O)OCC(C)(C)C2 (racemic) [Example A174]
IC50 [1]: < 1000 nM
decrease in cell viability with respect to KRAS G12V (Capan-1) versus wild-type KRAS (A375) [2]: greater decrease in cell viability

CO[C@@H](C)c1ncc(C2CCN(C3COC3)CC2)cc1-c1c2c3cc(ccc3n1CCOC1CCOCC1)-c1csc(n1)[C@@H](N1CC3(COC3)C1)[C@H](NC(=O)[C@@H]1OC[C@@H]1C)C(=O)N1CCC[C@H](N1)C(=O)OCC(C)(C)C2 (racemic) [Example A175]
IC50 [1]: < 1000 nM
decrease in cell viability with respect to KRAS G12V (Capan-1) versus wild-type KRAS (A375) [2]: greater decrease in cell viability

CO[C@@H](C)c1ncc(C2CCN(C3COC3)CC2)cc1-c1c2c3cc(ccc3n1CCOC1CCOCC1)-c1csc(n1)[C@@H](N1CC3(COC3)C1)[C@H](NC(=O)[C@H]1OC[C@@H]1C)C(=O)N1CCC[C@H](N1)C(=O)OCC(C)(C)C2 (racemic) [Example A176]
IC50 [1]: < 1000 nM
decrease in cell viability with respect to KRAS G12V (Capan-1) versus wild-type KRAS (A375) [2]: greater decrease in cell viability

CO[C@@H](C)c1ncc(N2CCN(C)CC2)cc1-c1c2c3cc(ccc3n1CCOC1CCOCC1)-c1csc(n1)[C@@H](N1CC(C)(C)C1)[C@H](NC(=O)[C@H]1[C@H](C)[C@@H]1C)C(=O)N1CCC[C@H](N1)C(=O)OCC(C)(C)C2 (racemic) [Example A177]
IC50 [1]: < 1000 nM
decrease in cell viability with respect to KRAS G12V (Capan-1) versus wild-type KRAS (A375) [2]: greater decrease in cell viability

CO[C@@H](C)c1ncc([C@H]2CCN(C3COC3)C2)cc1-c1c2c3cc(ccc3n1CCOC1CCOCC1)-c1csc(n1)C(N1CC(C)(C)C1)[C@H](NC(=O)[C@H]1[C@H](C)[C@@H]1C)C(=O)N1CCC[C@H](N1)C(=O)OCC(C)(C)C2 (mixture of isomers) [Example A178]
IC50 [1]: < 1000 nM
decrease in cell viability with respect to KRAS G12V (Capan-1) versus wild-type KRAS (A375) [2]: greater decrease in cell viability

CO[C@@H](C)c1ncc([C@@H]2CCN(C3COC3)C2)cc1-c1c2c3cc(ccc3n1CCOC1CCOCC1)-c1csc(n1)C(N1CC(C)(C)C1)[C@H](NC(=O)[C@H]1[C@H](C)[C@@H]1C)C(=O)N1CCC[C@H](N1)C(=O)OCC(C)(C)C2 (mixture of isomers) [Example A179]
IC50 [1]: < 1000 nM
decrease in cell viability with respect to KRAS G12V (Capan-1) versus wild-type KRAS (A375) [2]: greater decrease in cell viability

From patent US20250154171A1, “RAS INHIBITORS” (Revolution Medicines, Inc., priority 2023, published 2025)
